# Test results published in patent EP0428272A2, “Trifluorobenzodiazepine compounds for use in therapy by intraoral administration” (Ellinwood, Everett Hews, priority 1989, dated 1991).
# At least one read-out could not be matched to a standard name with certainty. Marks after values point to notes of the source that are not given here.
# Experiment: Pharmacokinetics in blood plasma after a single sublingual or per oral swallowed dose of quazepam 15 mg standard tablet
# Assay type: in vivo, volunteer adult humans
# Conditions: metabolite N-desalkyl-2-oxoquazepam in plasma, formation half-life, mean ± SD
# Description: Test results will now be described. Testing was carried out using volunteer adult humans. Standard tablets containing, as active ingredient, solely quazepam or solely halazepam, were used. […]
# This change in concentrations for the two compounds can be seen with reference to Figure 1 and Figure 2 of the drawings where the differences in the parent compound Q and the metabolite DOQ for both the oral and sublingual dosing is shown. […] With chronic dosing it is readily apparent that after 15 days the DOQ level, following oral administration, has reached levels that are associated with the threshold for impairing ataxic and incoordination affects (especially if larger doses are given). […]
smiles,measurement,setting,value
"O=C1CN=C(c2ccccc2F)c2cc(Cl)ccc2N1 [N-DESALKYL-2-OXOQUAZEPAM, N-desalkyl-2-oxoquazepam]",t1/2 Km,oral quazepam 15 mg,1.24 ± 0.52 h
same,t1/2 Km,sublingual quazepam 15 mg,1.07 ± 0.31^a hr
